Laboratory results from patent US20020102617A1.
These are yes or no findings as the source states them, for the method shown. Some binding calls cover weakened binding; strength is not graded here.

By UniProt entry, the sequences of proteins in these tests, tags left out. Residues count along the entry.
UniProt P19838, residues 1-433: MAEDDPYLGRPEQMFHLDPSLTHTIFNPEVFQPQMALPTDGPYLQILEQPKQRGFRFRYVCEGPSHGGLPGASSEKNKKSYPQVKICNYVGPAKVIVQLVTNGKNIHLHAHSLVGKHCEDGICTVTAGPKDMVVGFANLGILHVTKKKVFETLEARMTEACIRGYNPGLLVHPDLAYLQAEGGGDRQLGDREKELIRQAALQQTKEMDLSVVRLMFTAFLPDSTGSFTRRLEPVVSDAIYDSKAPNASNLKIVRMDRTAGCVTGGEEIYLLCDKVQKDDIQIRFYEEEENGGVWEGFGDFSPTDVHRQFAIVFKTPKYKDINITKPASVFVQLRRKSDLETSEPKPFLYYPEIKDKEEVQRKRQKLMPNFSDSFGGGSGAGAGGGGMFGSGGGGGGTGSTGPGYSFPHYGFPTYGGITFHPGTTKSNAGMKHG
UniProt P25963: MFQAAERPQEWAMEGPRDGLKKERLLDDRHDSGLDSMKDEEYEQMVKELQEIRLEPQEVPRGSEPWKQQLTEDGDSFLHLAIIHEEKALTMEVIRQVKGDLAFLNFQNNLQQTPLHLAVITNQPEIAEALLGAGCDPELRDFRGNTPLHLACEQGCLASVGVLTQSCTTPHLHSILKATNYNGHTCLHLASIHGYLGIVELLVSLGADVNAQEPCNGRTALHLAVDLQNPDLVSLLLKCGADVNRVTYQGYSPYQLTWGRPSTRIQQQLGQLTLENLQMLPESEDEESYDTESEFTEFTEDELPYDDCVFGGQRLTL

Biological target: p50 (of the NFκB complex) (UniProt P19838)
Assay: protein microarray on aldehyde glass slide, 0.1 µg/ml fluorescent probe (FIG. 1B)

binding: binds
Substance: Cy3-conjugated IκBα (from UniProt P25963 1-317)
